Reference: PubChem BioAssay AID1671190 (National Center for Advancing Translational Sciences (NCATS), 2021)
Among all 580,000 compounds or so, about 6,100 (1.1%) were called active. The inconclusive results got no clear call from the source; some entries with a clear call stand among them for comparison. The call rests on the fitted dose curve; in most records, active means well fitted inhibition curve with a large enough effect; inconclusive means small, poorly fitted or top-dose-only effect, or another doubt; inactive means no such curve, though single readings can be large or run the other way. Where the call is inconclusive, the potency comes from a doubtful curve fit.

Amino acid sequences for entries named in this document (tags omitted). A change or cut given only in a name is not applied to a line headed by its entry.
UniProt P18054: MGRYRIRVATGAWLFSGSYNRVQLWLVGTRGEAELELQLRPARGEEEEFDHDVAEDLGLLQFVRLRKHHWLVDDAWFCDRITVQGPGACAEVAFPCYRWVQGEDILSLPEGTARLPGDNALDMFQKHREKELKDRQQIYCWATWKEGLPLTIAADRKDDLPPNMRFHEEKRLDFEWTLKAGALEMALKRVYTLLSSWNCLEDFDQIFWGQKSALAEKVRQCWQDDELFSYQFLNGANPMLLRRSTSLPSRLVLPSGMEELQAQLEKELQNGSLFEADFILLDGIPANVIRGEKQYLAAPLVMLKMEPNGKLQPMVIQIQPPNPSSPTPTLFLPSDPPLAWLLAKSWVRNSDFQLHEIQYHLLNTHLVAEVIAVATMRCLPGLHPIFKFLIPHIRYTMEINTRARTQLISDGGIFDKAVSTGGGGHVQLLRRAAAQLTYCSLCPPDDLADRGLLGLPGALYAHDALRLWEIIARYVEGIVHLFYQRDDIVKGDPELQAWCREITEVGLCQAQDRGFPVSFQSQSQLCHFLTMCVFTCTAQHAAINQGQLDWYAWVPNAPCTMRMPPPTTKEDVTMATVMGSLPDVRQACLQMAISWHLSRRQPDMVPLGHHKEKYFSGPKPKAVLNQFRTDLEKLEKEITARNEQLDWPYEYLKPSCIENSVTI

Target: Polyunsaturated fatty acid lipoxygenase ALOX12 (Homo sapiens) (UniProt P18054)
Assay: Primary qHTS assay for inhibitors of human arachidonate 12S-lipoxygenase (ALOX12): Round 2
Settings: purified 12hLO, xylenol orange hydroperoxide absorbance; activity change, negative = inhibition: at 108 µM (top of the series) unless noted
How it was run: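 Hydroperoxide product was detected by ferrous iron/xylenol orange as the 573 to 405 nm absorbance ratio. Arachidonic acid at 40 uM (final) was turned over for 30 min at room temperature by 150 nM human 12hLO, pH 7.0 Hepes buffer, after 15 min compound preincubation.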
On the % scale 0 is the no-effect control and ±100 the full control effect; potency means the concentration at half of the fitted maximal effect.

How did the Potency turn out when `CN(c1cc(=O)c2ccnc(-c3ccc(F)c(Cl)c3)c2o1)C1CCOCC1` was run?
Its Potency is inconclusive: 100 µM [inhibitor, partial curve].

Which “activity change, negative = inhibition” value does the source give for `COc1cc(NC(=O)c2ccc(-c3c(C)noc3C)c3ccoc23)cc(OC)c1OC` here?
Its value is inactive: 3.73%.

Which Potency does the source give for `CCn1c(CNc2nc3ccccc3n2C(C)C)nc2ccccc21` here?
The Potency was inconclusive: 89.1 µM [inhibitor, single point].

With `CN(CC(=O)N1CCN(c2ccccc2)CC1)S(=O)(=O)c1cccs1` as the compound, how does the Potency read?
Its Potency is inconclusive: 89.1 µM [inhibitor, single point].

Which Potency does the source give for `O=C(c1cc(=O)c2ccccc2o1)N(Cc1ccc(F)cc1)C1CCS(=O)(=O)C1` (stereo unspecified) here?
Its Potency is inconclusive: 141 µM [inhibitor, single point].

Which Potency does the source give for `COc1cc(OC)c(-c2nc3ccccc3s2)cc1OC` here?
Its Potency is inconclusive: 44.7 µM [inhibitor, partial curve, poor fit].

Which “activity change, negative = inhibition” value does the source give for `CCOC(=O)c1c(C)oc2nc(C)nc(N3CCN(c4cccc(C(F)(F)F)c4)CC3)c12` here?
Its value is inactive: -9.93%.

With `CCN1CCC(OCCCNC(=O)CCC[C@H]2NC[C@@H]3C[C@H]2CN(Cc2ccccc2)C3)CC1` as the compound, how does the Potency read?
Its Potency is inconclusive: 10 µM [inhibitor, partial curve].

With `CN(C)C(=O)N1CCN(c2ccc(Cl)nn2)C(=O)C1` as the compound, how does the Potency read?
The Potency was inconclusive: 39.8 µM [inhibitor, single point].

With `COc1ccc(N2CCN(C(=O)c3c(Cl)cnn3C)CC2)cc1` as the compound, how does the Potency read?
The Potency was inconclusive: 50.1 µM [inhibitor, partial curve, poor fit].

With `Cc1ccc(C(=O)N(CCCN(C)C)c2nc3ccc(Cl)cc3s2)cc1C` as the compound, how does the Potency read?
The Potency was inconclusive: 112 µM [inhibitor, single point].

Which Potency does the source give for `O=C(/C=C/c1ccco1)N1CCN(S(=O)(=O)c2ccccc2)CC1` here?
The Potency was inconclusive: 17.8 µM [inhibitor, partial curve, poor fit].

With `CN(C)S(=O)(=O)c1cccc(NC(=S)Nc2cc(Cl)cc(Cl)c2)c1` as the compound, how does the Potency read?
The Potency was inconclusive: 44.7 µM [inhibitor, partial curve, poor fit].

For `CC(=O)Nc1ccc(NC(=O)c2cc(=O)c3cc(Cl)ccc3o2)cc1`, which “activity change, negative = inhibition” value is on record?
Its value is inactive: -8.05%.

How did the Potency turn out when `Cc1ccc2[nH]c(CSc3nnc(NC(=O)COc4ccc(F)cc4)s3)cc(=O)c2c1` was run?
The Potency was inconclusive: 126 µM [inhibitor, partial curve, poor fit].

`CC(C)(C)c1ccc(-c2csc(NC=C(C#N)C#N)n2)cc1` was tested. Which Potency did it give?
The Potency was inconclusive: 50.1 µM [inhibitor, partial curve, poor fit].

With `COCc1cc(CN(C)C(=O)CCc2cc3n(n2)CCNC3)[nH]n1` as the compound, how does the Potency read?
Its Potency is inconclusive: 8.91 µM [inhibitor, partial curve, poor fit].

How did the Potency turn out when `CC(C)n1c(-c2ccco2)csc1=Nc1cccnc1` was run?
The Potency was inconclusive: 44.7 µM [inhibitor, partial curve, poor fit].

`CCCCNC(=S)N(Cc1c(C)noc1C)c1ccccc1` was tested. Which “activity change, negative = inhibition” value did it give?
The value was inactive: -9.55%.

With `c1ccc(Cn2nnc3c(N4CCOCC4)ncnc32)cc1` as the compound, how does the “activity change, negative = inhibition” value read?
The value was inactive: 3.82%.

With `O=C(C[n+]1cccc(C(=O)Nc2ccccc2)c1)c1ccc([N+](=O)[O-])cc1` as the compound, how does the Potency read?
The Potency was inconclusive: 14.1 µM [inhibitor, full curve, poor fit].

How did the “activity change, negative = inhibition” value turn out when `CCCn1c(SCC(=O)Nc2cccc(S(=O)(=O)N(C)C)c2)nc2ccccc2c1=O` was run?
The value was inactive: -6.03%.

Which Potency does the source give for `O=C(CC(Nc1cc(C(F)(F)F)ccc1Cl)C(=O)O)c1ccccc1` (stereo unspecified) here?
Its Potency is inconclusive: 5.62 µM [inhibitor, full curve, poor fit].

How did the Potency turn out when `O=C(O)Cn1cc(C(C(=O)O)N2CCN(Cc3cccnc3)CC2)c2ccc(Br)cc21` (stereo unspecified) was run?
The Potency was inconclusive: 6.31 µM [inhibitor, full curve].

For `CCc1ccc(NC(=O)Cc2nc(-c3[nH]c(C)c(C(=O)OC)c3C)cs2)cc1`, which Potency is on record?
The Potency was inconclusive: 8.91 µM [inhibitor, full curve].

`Cc1cccc(NC(=O)c2cccc(S(=O)(=O)NCc3ccccc3)c2)n1` was tested. Which Potency did it give?
Its Potency is inconclusive: 35.5 µM [inhibitor, partial curve, poor fit].

`O=C(CCCCn1c(=O)c2ccccc2n(Cc2cccc(Cl)c2)c1=O)NCc1ccc2c(c1)OCO2` was tested. Which “activity change, negative = inhibition” value did it give?
Its value is inactive: -13.4%.

For `COc1ccccc1-c1nc(-c2cc3cccc(OC)c3oc2=O)cs1`, which Potency is on record?
The Potency was inconclusive: 100 µM [inhibitor, partial curve, poor fit].

For `CC(C)(C)[C@@H]1C=C(C(N)=O)O[C@H](OCCCCO)C1`, which Potency is on record?
Its Potency is inconclusive: 70.8 µM [inhibitor, single point].

How did the Potency turn out when `CC(C)Nc1nc(-c2cc3c4c(c2)CC(=O)N4CCC3)cs1` was run?
The Potency was inconclusive: 35.5 µM [inhibitor, full curve, poor fit].

Which Potency does the source give for `Cc1ccccc1NC(=S)NCc1ccc2c(c1)cc(C)n2C` here?
Its Potency is inconclusive: 25.1 µM [inhibitor, single point].

Which “activity change, negative = inhibition” value does the source give for `CN(Cc1ccsc1)C(=O)CCc1nnc(Cc2c[nH]c3ccccc23)o1` here?
Its value is inactive: -23.1%.

`Cc1oc2cc(OCC(=O)NCc3ccccc3)ccc2c(=O)c1Oc1ccccc1` was tested. Which “activity change, negative = inhibition” value did it give?
Its value is inactive: -17%.

How did the Potency turn out when `CCN(C(=O)c1cc2sc3ccccc3c2s1)c1ccccc1` was run?
The Potency was active: 7.94 µM.

Which “activity change, negative = inhibition” value does the source give for `COC(=O)C1=C(C(=O)OC)[C@]2([C@@H]3CCCCN[C@@H](Cc4ccccc4)C(=O)N3Cc3ccccc3)C=C[C@H]1O2` here?
Its value is inactive: -22.7%.

`Cc1nn(C(C)C)cc1N` was tested. Which Potency did it give?
Its Potency is inconclusive: 2 µM [inhibitor, full curve, poor fit].

`Cc1cccc(N2CCN(C(=O)c3cc4ccc(F)cc4nc3C)CC2)c1` was tested. Which “activity change, negative = inhibition” value did it give?
Its value is inactive: 4.42%.

How did the “activity change, negative = inhibition” value turn out when `Cc1nn(C)cc1-c1nc2cc(S(=O)(=O)NC(C)C)ccc2n1C(C)C` was run?
The value was inactive: 62.6%.

How did the Potency turn out when `Cc1cc(=O)n2[nH]c(NC(=O)c3cccc(Cl)c3)nc2n1` was run?
Its Potency is inconclusive: 12.6 µM [inhibitor, full curve, poor fit].

Which Potency does the source give for `COCCN(C(=O)COC(=O)c1ccc2[nH]c(C)c(C)c2c1)c1c(N)n(Cc2ccccc2)c(=O)[nH]c1=O` here?
The Potency was inconclusive: 56.2 µM [inhibitor, partial curve, poor fit].

With `Cc1csc(-c2nc3ccccc3n2C(C(=O)NC(C)(C)C)c2cc3ccccc3o2)c1` (stereo unspecified) as the compound, how does the Potency read?
The Potency was inconclusive: 50.1 µM [inhibitor, partial curve, poor fit].
